Laboratory results: PubChem BioAssay AID686938 (Drosophila RNAi Screening Center, 2013)
In all, the deposit lists about 23,000 reagents; below is an unselected part of those that have a named target and a result. In the full data, 75 (0.33%) got an active call. 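Raw plate signals without normalisation; calls rest on plate z-scores that were not deposited; ratio present for only 364 wells.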 A number with no mark means an inactive call. A plus sign joins genes that one reagent is predicted to hit. Reagent sequences are not shown. Not stated in the record: the dose of the treatment.

Assay: 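Fly genes required for calcium entry once internal stores are emptied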 (primary screen)
Cell system: Drosophila S2R+ cells
Reagents: long dsRNA against Drosophila genes, about 0.25 µg dsRNA per well, roughly 10,000 cells
Duration: 5 days of knock-down before the calcium assay
Treatment: thapsigargin (SERCA pump blocker) to empty calcium stores; entry signal taken 4 min after adding it
Measured: 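Duplicate raw fluo-4 intensities per well from a plate reader, at rest and four minutes after thapsigargin emptied calcium stores; entry-to-rest ratio filled for only some wells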
Reading the numbers: calcium entry signal: higher = stronger calcium signal after store depletion; entry to resting ratio: higher = more calcium entry relative to resting level; resting calcium signal: higher = higher resting calcium signal
Hit rule: 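Called when the plate z-score of the entry-to-rest ratio, mean of duplicates, falls below −3; wells with low overall dye signal (Fmax z below −2) or more than five off-targets excluded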
Meaning of the calls: active = strongly reduced calcium entry; inactive = no strong reduction

| gene | dsRNA | calcium entry signal, replicate 1 (fluorescence units) | calcium entry signal, replicate 2 (fluorescence units) | entry to resting ratio | resting calcium signal, replicate 1 (fluorescence units) | resting calcium signal, replicate 2 (fluorescence units) |
| --- | --- | --- | --- | --- | --- | --- |
| hop (hopscotch) | DRSC20340 | 2.45e7 | 4.20e7 | – | 1.22e7 | 2.00e7 |
| hop (hopscotch) | DRSC23334 | 3.57e7 | 3.58e7 | – | 1.82e7 | 1.78e7 |
| CG34357 | DRSC12211 | 2.67e7 | 6.12e7 | – | 1.33e7 | 2.64e7 |
| CG34357 | DRSC12238 | 3.45e7 | 5.68e7 | – | 1.78e7 | 2.70e7 |
| CG34357 | DRSC12334 | 3.23e7 | 5.57e7 | – | 1.66e7 | 2.59e7 |
| CG34357 | DRSC23031 | 3.71e7 | 3.32e7 | – | 1.89e7 | 1.52e7 |
| Cdc14 (Cell division cycle 14) | DRSC03013 | 3.99e7 | 3.79e7 | – | 1.55e7 | 2.02e7 |
| CG9436 | DRSC05005 | 3.97e7 | – | – | 1.87e7 | – |
| Sk1 (Sphingosine kinase 1) | DRSC19774 | 2.15e7 | 2.76e7 | – | 1.25e7 | 1.36e7 |
| CG5969 | DRSC11789 | 3.23e7 | 3.43e7 | – | 2.71e7 | 1.85e7 |
| CG4598 | DRSC02763 | 3.11e7 | 4.94e7 | – | 1.59e7 | 2.03e7 |
| CG13026 | DRSC09906 | 3.91e7 | 5.49e7 | – | 1.77e7 | 1.95e7 |
| MFS16 (Major Facilitator Superfamily Transporter 16) | DRSC04051 | 3.78e7 | 4.63e7 | – | 1.83e7 | 1.95e7 |
| snu (snustorr) | DRSC16589 | 5.09e7 | 4.92e7 | – | 2.20e7 | 2.24e7 |
| Mvk + CG33672 + spt4 | DRSC05356 | 4.61e7 | 6.00e7 | – | 2.11e7 | 2.56e7 |
| Mvk + CG33672 + spt4 | DRSC06628 | 3.85e7 | 4.51e7 | – | 1.66e7 | 1.99e7 |
| retn (retained) | DRSC04679 | 3.73e7 | 4.91e7 | – | 1.93e7 | 2.07e7 |
| Khc (Kinesin heavy chain) | DRSC07448 | 3.50e7 | 3.20e7 | – | 1.57e7 | 1.57e7 |
| CG10336 | DRSC02037 | 4.55e7 | – | – | 2.19e7 | – |
| mIF2 (mitochondrial translation initiation factor 2) | DRSC14510 | 4.17e7 | 4.70e7 | – | 1.91e7 | 1.80e7 |
| CG10298 | DRSC12522 | 3.31e7 | 3.35e7 | – | 1.67e7 | 1.55e7 |
| Uggt (UDP-glucose-glycoprotein glucosyltransferase) | DRSC11315 | 4.25e7 | 4.94e7 | – | 1.95e7 | 3.51e7 |
| Gtpx | DRSC08221 | 3.63e7 | 2.46e7 | – | 2.57e7 | 1.17e7 |
| Gtpx | DRSC22117 | 2.23e7 | 6.47e7 | – | 1.12e7 | 2.67e7 |
| THADA | DRSC19675 | 3.41e7 | 3.96e7 | – | 1.61e7 | 1.84e7 |
| pip (pipe) | DRSC11382 | 2.38e7 | 4.56e7 | – | 1.21e7 | 1.85e7 |
| Pka-R1 (Protein kinase, cAMP-dependent, regulatory subunit type 1) | DRSC11674 | 4.34e7 | 4.46e7 | – | 1.97e7 | 3.09e7 |
| Pka-R1 (Protein kinase, cAMP-dependent, regulatory subunit type 1) | DRSC11875 | 4.28e7 | 4.70e7 | – | 1.83e7 | 2.92e7 |
| CG32111 (retired record) | DRSC09203 | 2.85e7 | 3.29e7 | – | 1.42e7 | 1.51e7 |
| CR33294 (pseudo) | DRSC22950 | 2.27e7 | 3.35e7 | – | 1.30e7 | 1.40e7 |
| Psi (P-element somatic inhibitor) | DRSC07519 | 3.43e7 | 2.92e7 | – | 1.42e7 | 1.35e7 |
| CG2157 | DRSC19836 | 3.83e7 | 5.95e7 | – | 1.93e7 | 2.78e7 |
| CG1441 | DRSC06448 | 3.71e7 | 3.06e7 | – | 1.59e7 | 1.49e7 |
| Pex2 (Peroxin 2) | DRSC10770 | 3.41e7 | 2.42e7 | – | 2.34e7 | 1.01e7 |
| Cdc2rk (Cdc2-related kinase) | DRSC07590 | 3.63e7 | 3.31e7 | – | 1.75e7 | 1.58e7 |
| PrBP (Prenyl-binding protein) | DRSC03189 | 3.27e7 | 4.41e7 | – | 1.58e7 | 1.69e7 |
| CG14671 | DRSC12257 | 4.68e7 | 4.06e7 | – | 2.43e7 | 1.90e7 |
| Ziz (Zizimin) | DRSC02506 | 3.98e7 | 4.13e7 | – | 1.91e7 | 1.83e7 |
| Ziz (Zizimin) | DRSC02976 | 3.77e7 | 3.41e7 | – | 1.83e7 | 1.57e7 |
| CG12010 | DRSC08218 | 2.84e7 | 3.59e7 | – | 1.53e7 | 1.60e7 |
| dpr10 (defective proboscis extension response 10) | DRSC09015 | 3.48e7 | 4.20e7 | – | 1.80e7 | 1.91e7 |
| dpr10 (defective proboscis extension response 10) | DRSC09018 | 3.12e7 | 3.83e7 | – | 1.68e7 | 1.84e7 |
| dpr10 (defective proboscis extension response 10) | DRSC10159 | 3.60e7 | 3.76e7 | – | 1.85e7 | 1.72e7 |
| dpr10 (defective proboscis extension response 10) | DRSC10160 | 3.54e7 | 3.36e7 | – | 1.78e7 | 1.50e7 |
| Karl | DRSC19883 | 2.94e7 | 3.36e7 | – | 1.42e7 | 1.39e7 |
| Or56a (Odorant receptor 56a) | DRSC07495 | 5.60e7 | 6.33e7 | – | 2.36e7 | 2.95e7 |
| CG14982 | DRSC08440 | 3.03e7 | 4.22e7 | – | 1.92e7 | 2.18e7 |
| CG14982 | DRSC23022 | 3.75e7 | 3.82e7 | – | 1.80e7 | 1.77e7 |
| pgc (polar granule component) | DRSC04099 | 4.28e7 | 5.45e7 | – | 1.99e7 | 2.29e7 |
| CG14777 | DRSC18563 | 4.19e7 | 4.60e7 | 2 | 2.04e7 | 1.89e7 |
| pk (prickle) | DRSC06178 | 3.25e7 | 3.69e7 | – | 1.62e7 | 1.72e7 |
| pk (prickle) | DRSC07664 | 5.58e7 | 4.09e7 | – | 2.32e7 | 1.74e7 |
| pk (prickle) | DRSC22156 | 3.01e7 | 4.81e7 | – | 1.53e7 | 2.53e7 |
| CG12674 | DRSC00348 | 3.03e7 | 3.32e7 | – | 1.40e7 | 1.55e7 |
| mRpS18B (mitochondrial ribosomal protein S18B) | DRSC02107 | 4.37e7 | – | – | 2.25e7 | – |
| CG30394 | DRSC04074 | 3.14e7 | 4.18e7 | – | 1.54e7 | 1.85e7 |
| CG30394 | DRSC04260 | 3.20e7 | 4.21e7 | – | 1.42e7 | 1.90e7 |
| CG10602 | DRSC02075 | 4.83e7 | – | – | 2.34e7 | – |
| Ire1 (Inositol-requiring enzyme-1) | DRSC15606 | 3.87e7 | 4.32e7 | – | 7.16e7 | 1.83e7 |
| SF2 (Splicing factor 2) | DRSC16845 | 4.88e7 | 7.58e7 | – | 2.40e7 | 7.98e7 |
| Cpr60D (Cuticular protein 60D) | DRSC04492 | 4.77e7 | 3.96e7 | – | 2.30e7 | 2.02e7 |
| CG11398 | DRSC18625 | 4.09e7 | 4.99e7 | 2.3 | 1.78e7 | 2.09e7 |
| CG14478 | DRSC06450 | 5.77e7 | 5.65e7 | – | 2.38e7 | 2.73e7 |
| Dif (Dorsal-related immunity factor) | DRSC03316 | 4.38e7 | 3.31e7 | – | 2.07e7 | 1.47e7 |
| CG11149 | DRSC02130 | 3.01e7 | 3.09e7 | – | 1.44e7 | 1.53e7 |
| CG17202 | DRSC15194 | 4.77e7 | 4.85e7 | – | 2.44e7 | 2.52e7 |
| CG17202 | DRSC23073 | 3.38e7 | 2.95e7 | – | 1.63e7 | 1.28e7 |
| Polr2L (RNA polymerase II, I and III subunit L) | DRSC14630 | 1.88e7 | 1.91e7 | – | 1.17e7 | 1.01e7 |
| insb (insensible) | DRSC06995 | 5.39e7 | 4.65e7 | – | 2.35e7 | 2.20e7 |
| CG14488 | DRSC06460 | 4.40e7 | 4.86e7 | – | 1.79e7 | 2.17e7 |
| Cyp6v1 (Cytochrome P450 6v1) | DRSC20565 | 4.89e7 | 5.37e7 | – | 2.68e7 | 2.44e7 |
| prd1 (pruning defect 1) | DRSC15227 | 3.13e7 | 4.05e7 | – | 1.66e7 | 2.01e7 |
| CG13377 | DRSC18622 | 3.96e7 | 5.49e7 | 2.2 | 1.82e7 | 2.37e7 |
| Pp4-19C (Protein phosphatase 19C) | DRSC20559 | 3.64e7 | 3.23e7 | – | 1.87e7 | 1.67e7 |
| Pp4-19C (Protein phosphatase 19C) | DRSC21251 | 3.68e7 | 4.06e7 | – | 2.27e7 | 2.07e7 |
| Pp4-19C (Protein phosphatase 19C) | DRSC23319 | 3.53e7 | 3.36e7 | – | 1.87e7 | 1.71e7 |
